Test results reported in patent publication US12076417B2, “Plasma-derived nanoparticles” (NANOMEDX, INC., priority 2016, dated 2024).

Test: Quantification of molecular cargo bound to nanoP^3
Conditions: 10^9 nanoP^3/mL; room temperature; RT-PCR grade water pH=7; 1 hour

SMILES | cargo mass at surface saturation of nanoP^3 [µg]
CC1(C)C(/C=C/C=C/C=C/C=C2\N(CCCCS(=O)(=O)[O-])c3ccc4ccccc4c3C2(C)C)=[N+](CCCCS(=O)(=O)[O-])c2ccc3ccccc3c21.[Na+] [ICG, sodium 4-[2-[(1E,3E,5E,7Z)-7-[1,1-dimethyl-3-(4-sulfonatobutyl)benzo[e]indol-2ylidene]hepta-1,3,5-trienyl]-1,1-dimethylbenzo[e]indol-3-ium-3-yl]butane-1-sulfonate] | 2.9
CC(=O)O[C@H]1C(=O)[C@@]2(C)[C@H]([C@H](OC(=O)c3ccccc3)[C@]3(O)C[C@H](OC(=O)[C@H](O)[C@@H](NC(=O)c4ccccc4)c4ccccc4)C(C)=C1C3(C)C)[C@]1(OC(C)=O)CO[C@@H]1C[C@@H]2O [paclitaxel, Paclitaxel-Oregon Green 488] | 2.3
